# Assay results: patent US20200339660A1
# No constants are given. Whether binding was seen depends on the method and setting. Binding seen in cells or lysates may run through a third protein. Some entries that bind do so weakly or less than the wild type.
# B1: (N-CCR4)3 protein (receptor)
# chain: MNPTDIADTTLDESIYSNYYLYESIPKPCTKEGIKAFGELFLPPLYSGGGGSGGGGSMNPTDIADTTLDESIYSNYYLYESIPKPCTKEGIKAFGELFLPPLYSGGGGSGGGGSMNPTDIADTTLDESIYSNYYLYESIPKPCTKEGIKAFGELFLPPLYSLDPNSSSVDKLAAALEHHHHHH
# Target: CCL22-GST protein
# Assay: GST pulldown: 120 ng CCL22-GST mixed with 360 ng (N-CCR4)3 on GST agarose, SDS-PAGE with silver staining; GST alone as control
binder,measurement,value
B1,binding,binds
